No constants are given. Whether binding was seen depends on the method and setting.
Key:
[1] = target: bromodomain of CBP (residues 1081-1197) (human) (UniProt Q92793); assay: SEC; Superdex 75 equilibrated with 50 mM HEPES pH 7.5, 100 mM NaCl, 2 mM DTT; FPLC at 4 °C; last step of the purification; both purified
[2] = target: bromodomain of EP300 (residues 1048-1161) (human) (UniProt Q09472); assay: as above

Amino acid sequences for entries named in this document (tags omitted). Residues count along the entry.
UniProt Q92793, residues 1081-1197: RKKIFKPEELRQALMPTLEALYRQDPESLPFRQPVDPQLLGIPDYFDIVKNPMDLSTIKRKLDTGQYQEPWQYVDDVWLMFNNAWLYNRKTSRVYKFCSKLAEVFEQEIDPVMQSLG
UniProt Q09472, residues 1048-1161: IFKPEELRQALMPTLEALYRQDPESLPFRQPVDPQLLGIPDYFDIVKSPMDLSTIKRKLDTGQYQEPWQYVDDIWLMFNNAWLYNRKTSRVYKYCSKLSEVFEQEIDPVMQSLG

| Substance | binding [1] | binding [2] |
| --- | --- | --- |
| bromodomain of CBP (residues 1081-1197) (from UniProt Q92793 1081-1197) (domain or fragment) | no binding |  |
| bromodomain of EP300 (residues 1048-1161) (from UniProt Q09472 1048-1161) (domain or fragment) |  | no binding |
